These are yes or no findings as the source states them, for the method shown. In cells and extracts the contact can be indirect. Some binding calls cover weakened binding; strength is not graded here.
What was measured:
[1] = target: Beclin-1 (human (endogenous in NCI-N87 and MKN-74)) (UniProt Q14457); experiment: co-IP; lysates of NCI-N87 and MKN-74 cells in IP buffer (pH 7.5, 50 mM Tris-HCl, 250 mM NaCl, 5 mM EDTA, 0.5% NP-40); anti-Bcl-2 or anti-Beclin-1 at 4 °C for 16 h, protein A/G plus agarose; Western blot; cells untreated or treated with cinnamaldehyde (CA, 50 μg/mL; 0, 16, 24 h), which suppressed the interaction
[2] = target: Bcl-2 (human (endogenous in NCI-N87 and MKN-74)) (UniProt P10415); experiment: as above

Amino acid sequences for entries named in this document (tags omitted).
UniProt Q14457: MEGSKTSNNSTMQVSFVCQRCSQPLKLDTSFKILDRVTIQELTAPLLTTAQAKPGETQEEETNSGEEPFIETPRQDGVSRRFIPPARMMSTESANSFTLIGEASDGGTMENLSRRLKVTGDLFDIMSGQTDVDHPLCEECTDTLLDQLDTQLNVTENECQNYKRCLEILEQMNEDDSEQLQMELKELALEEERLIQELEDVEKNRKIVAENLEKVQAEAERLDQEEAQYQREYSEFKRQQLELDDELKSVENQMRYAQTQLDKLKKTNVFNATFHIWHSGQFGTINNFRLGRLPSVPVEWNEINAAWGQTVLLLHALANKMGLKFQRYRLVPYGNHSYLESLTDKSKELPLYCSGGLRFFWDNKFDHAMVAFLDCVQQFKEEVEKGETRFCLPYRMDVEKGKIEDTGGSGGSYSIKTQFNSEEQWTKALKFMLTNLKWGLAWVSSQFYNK
UniProt P10415: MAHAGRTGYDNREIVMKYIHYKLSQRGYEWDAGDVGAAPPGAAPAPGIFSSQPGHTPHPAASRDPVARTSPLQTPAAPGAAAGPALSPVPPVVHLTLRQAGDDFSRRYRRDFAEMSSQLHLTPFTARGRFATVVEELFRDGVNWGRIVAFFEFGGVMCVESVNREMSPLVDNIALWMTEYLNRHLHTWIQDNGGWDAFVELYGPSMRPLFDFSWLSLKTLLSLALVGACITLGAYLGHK

| binding [1] | binding [2] | Substance |
| --- | --- | --- |
| binds |  | Bcl-2 (from UniProt P10415 1-239) |
|  | binds | Beclin-1 (from UniProt Q14457 1-450) |
